Test results as given in US6534080B2, “Method for administering camptothecins via injection of pharmaceutical composition comprising coated particles of a camptothecin” (priority 2001, dated 2003).
For at least one compound, name, drawing or mass did not settle the structure.

Tested on: A375 human melanoma xenografts
Experiment: A375 human melanoma xenograft study 1 (tumor growth delay, toxicity)
Details: 150 mg/kg I.P., qd×5, Group 7, Day 62

Question: For `CN(C)/N=N/c1[nH]cnc1C(N)=O` [DTIC®, dacarbazine], which CR responses is on record?
Answer: single and one
